Reference: the supplement of paper PMC10470496
Where a name gives a salt, the structure may show the parent alone. The list shows a part of the results. Single values are uncertain, as repeats are few or missing.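 Three clinical Candida auris isolates (clades III, IV and I) from the CDC resistance isolate bank were grown in RPMI-1640 at 35°C. Growth was background-corrected OD600 relative to same-plate vehicle-only wells. Hits required over 50% inhibition in at least two strains and a plate-corrected B-score above 0.1.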

Experiments:
Experiment in all cases: growth relative to vehicle control (OD600 ratio) (fraction); higher = less inhibition
Conditions in all cases: 24 h
C. auris AR-384 = tested on: C. auris AR-384
C. auris AR-386 = tested on: C. auris AR-386
C. auris AR-387 = tested on: C. auris AR-387

SMILES | growth (C. auris AR-384; 1 µM) | growth (C. auris AR-384; 10 µM) | growth (C. auris AR-386; 1 µM) | growth (C. auris AR-386; 10 µM) | growth (C. auris AR-387; 1 µM) | growth (C. auris AR-387; 10 µM)
COc1ccc(C(CN(C)C)C2(O)CCCCC2)cc1 (stereo not given) [Venlafaxine HCl] | 0.74 | 0.52 | 0.84 | 1.1 | 0.75 | 0.79
C[N+](C)(C)CCCCCCCCCC[N+](C)(C)C [Decamethonium Bromide] | 1.14 | 1.23 | 1.4 | 1.3 | 1.43 | 1.4
Cc1cccc(C(C)c2c[nH]cn2)c1C (stereo not given) [Medetomidine HCl] | 1.22 | 0.97 | 1.25 | 0.91 | 1.08 | 0.99
O=C(O)c1nn(Cc2ccc(Cl)cc2Cl)c2ccccc12 [Lonidamine] | 0.99 | 1.01 | 1.12 | 1.06 | 0.99 | 0.82
NC(=O)CN1CC(O)CC1=O (stereo not given) [Oxiracetam] | 0.94 | 0.82 | 0.96 | 0.81 | 0.89 | 1.11
CN1[C@@H]2CC[C@H]1C[C@@H](OC(=O)[C@H](CO)c1ccccc1)C2 [Hyoscyamine] | 0.93 | 0.74 | 1.12 | 0.87 | 0.66 | 0.96
Cc1cc(O)ccc1Cl [Chlorocresol] | 0.69 | 0.61 | 0.8 | 0.34 | 0.82 | 0.79
NC(=O)c1cc(N2CC2)c([N+](=O)[O-])cc1[N+](=O)[O-] | 0.98 | 0.98 | 0.9 | 1 | 0.96 | 0.98
C=C1C[C@@H]2[C@H](CC[C@]3(C)C(=O)CC[C@@H]23)[C@@]2(C)C=CC(=O)C=C12 [Exemestane] | 1.2 | 0.82 | 0.83 | 1.31 | 1.07 | 0.83
NCCCNCCSP(=O)(O)O [Amifostine] | 0.59 | 0.56 | 0.82 | 0.85 | 0.74 | 0.67
C#C[C@]1(O)C=C[C@H]2[C@@H]3CCC4=CC(=O)CC[C@@H]4[C@H]3CC[C@@]21CC [Gestodene] | 1.09 | 0.8 | 0.83 | 1.2 | 1.21 | 0.81
Cc1cccc([C@H](C)c2c[nH]cn2)c1C [Dexmedetomidine HCl] | 1.02 | 1.09 | 1.08 | 0.84 | 0.57 | 0.98
NCCc1c[nH]c2ccc(O)cc12 [Serotonin HCl] | 0.82 | 0.9 | 0.52 | 1.09 | 0.89 | 0.94
CN1[C@@H]2C[C@@H](OC(=O)[C@H](CO)c3ccccc3)C[C@H]1[C@@H]1O[C@@H]12 [Scopolamine HBr] | 0.8 | 0.9 | 0.53 | 0.82 | 0.68 | 0.67
C[N+]1(C)CCCC(OC(=O)C(O)(c2ccccc2)c2ccccc2)C1 (stereo not given) [Mepenzolate Bromide] | 1.33 | 1.41 | 1.42 | 1.44 | 1.37 | 1.12
Oc1cc(Cl)ccc1Oc1ccc(Cl)cc1Cl [Triclosan] | 0.91 | 0.41 | 0.6 | 0.43 | 0.68 | 0.42
C[C@]12CC[C@H]3[C@@H](CC[C@@]45O[C@@H]4C(O)=C(C#N)C[C@]35C)[C@@H]1CC[C@@H]2O [Trilostane] | 0.79 | 1.03 | 0.95 | 0.8 | 0.78 | 0.94
COc1ccc(C(=O)N2CCCC2=O)cc1 [Aniracetam] | 0.92 | 1 | 0.74 | 0.8 | 0.82 | 0.95
C[C@@H]1O[C@@H](O[C@H]2C[C@@H](O)[C@]3(CO)[C@H]4[C@H](O)C[C@]5(C)[C@@H](C6=CC(=O)OC6)CC[C@]5(O)[C@@H]4CC[C@]3(O)C2)[C@H](O)[C@H](O)[C@H]1O [Ouabain] | 1.08 | 1.01 | 0.79 | 0.91 | 0.78 | 1.01
Cc1cccc([C@H](C)c2c[nH]cn2)c1C [Dexmedetomidine] | 1.23 | 1.31 | 1.5 | 1.24 | 1.61 | 1.23
CCOC(=O)c1cncn1[C@H](C)c1ccccc1 [Etomidate] | 0.9 | 1.08 | 1.25 | 1.42 | 1.54 | 1.59
CCCCCCC(=O)O[C@H]1CC[C@H]2[C@@H]3CCC4=CC(=O)CC[C@]4(C)[C@H]3CC[C@]12C [Testosterone Enanthate] | 0.74 | 0.73 | 0.84 | 0.95 | 0.74 | 0.78
CC(NC(C)(C)C)C(=O)c1cccc(Cl)c1 (stereo not given) [Amfebutamone (Bupropion) HCl] | 0.96 | 0.85 | 1.13 | 0.86 | 0.92 | 0.77
CN1c2ccccc2C(NCCCCCCC(=O)O)c2ccc(Cl)cc2S1(=O)=O (stereo not given) [Tianeptine sodium] | 1.05 | 0.78 | 0.87 | 1.06 | 0.87 | 1.09
CCN(C)C(=O)Oc1cccc([C@H](C)N(C)C)c1 [Rivastigmine Tartrate] | 1.27 | 1.11 | 1.1 | 1.29 | 1.23 | 1.06

SMILES | growth (C. auris AR-384; 1 µM) | growth (C. auris AR-384; 10 µM) | growth (C. auris AR-386; 1 µM) | growth (C. auris AR-386; 10 µM) | growth (C. auris AR-387; 1 µM) | growth (C. auris AR-387; 10 µM)
OC(c1ccccc1)(c1ccccc1)C1CCNCC1 [Azacyclonol] | 0.8 | 0.54 | 0.89 | 0.58 | 0.58 | 0.69
CC(C)N(CCNC(=O)CN1CCCC1=O)C(C)C [Pramiracetam] | 0.95 | 0.86 | 1.26 | 1.15 | 1.38 | 1.23
CC(O)(CS(=O)(=O)c1ccc(F)cc1)C(=O)Nc1ccc(C#N)c(C(F)(F)F)c1 (stereo not given) [Bicalutamide] | 0.88 | 1.32 | 1.34 | 1.43 | 1.12 | 1.4
COc1ccc2c(c1)[C@]13CCCC[C@@H]1[C@H](C2)N(C)CC3 [Dextromethorphan hydrobromide hydrate] | 1.22 | 0.97 | 0.81 | 0.9 | 0.87 | 0.98
CN(C)C(=O)Oc1cccc([N+](C)(C)C)c1 [Neostigmine Bromide] | 0.84 | 0.6 | 0.86 | 0.81 | 0.67 | 0.81
O=C1CC[C@@]2(O)[C@H]3Cc4ccc(O)c5c4[C@@]2(CCN3CC2CC2)[C@H]1O5 [Naltrexone HCl] | 0.68 | 0.8 | 0.74 | 1.06 | 1.11 | 0.9
CCc1cc2c(s1)-n1c(C)nnc1CN=C2c1ccccc1Cl [Etizolam] | 0.88 | 0.75 | 0.98 | 0.66 | 0.83 | 0.62
CC[C@H]1CN2CC[C@H]1C[C@@H]2[C@@H](O)c1ccnc2ccc(OC)cc12 [Hydroquinidine] | 1.05 | 0.84 | 0.88 | 1.04 | 0.85 | 1.2
C/C(=C\c1csc(C)n1)[C@@H]1C[C@@H]2O[C@]2(C)CCC[C@H](C)[C@H](O)[C@@H](C)C(=O)C(C)(C)[C@@H](O)CC(=O)O1 [Patupilone (EPO906, Epothilone B)] | 1.02 | 1.1 | 1.32 | 1.23 | 1.31 | 1.19
CN1CCN(C(=O)O[C@H]2c3nccnc3C(=O)N2c2ccc(Cl)cn2)CC1 [Eszopiclone] | 0.98 | 0.87 | 1.19 | 0.71 | 0.67 | 0.76
Cc1cccc(Cc2c[nH]cn2)c1C [Detomidine HCl] | 0.66 | 0.93 | 1.06 | 1.2 | 1.08 | 0.86
O=c1[nH]c2ccccc2n1CCCN1CCC(n2c(=O)[nH]c3cc(Cl)ccc32)CC1 [Domperidone] | 0.97 | 0.99 | 1.21 | 0.67 | 0.68 | 0.62
CN[C@@H]1[C@@H](O)[C@@H](O[C@@H]2[C@@H](O)[C@H](O[C@H]3O[C@H](CN)CC[C@H]3N)[C@@H](N)C[C@H]2N)OC[C@]1(C)O.CN[C@@H]1[C@@H](O)[C@@H](O[C@@H]2[C@@H](O)[C@H](O[C@H]3O[C@H]([C@@H](C)N)CC[C@H]3N)[C@@H](N)C[C@H]2N)OC[C@]1(C)O.CN[C@@H]1[C@@H](O)[C@@H](O[C@@H]2[C@@H](O)[C@H](O[C@H]3O[C@H]([C@@H](C)NC)CC[C@H]3N)[C@@H](N)C[C@H]2N)OC[C@]1(C)O [Gentamicin Sulfate] | 0.92 | 0.76 | 0.75 | 1.08 | 0.8 | 0.98
CNCC(=O)c1ccc(O)c(O)c1 [Adrenalone HCl] | 1.11 | 0.69 | 0.77 | 1.06 | 0.83 | 1
CCCN1C[C@H](CSC)C[C@@H]2c3cccc4[nH]cc(c34)C[C@H]21 [Pergolide Mesylate] | 0.66 | 0.75 | 0.79 | 0.78 | 0.72 | 0.81
Cc1cccc(C)c1NC1=NCCCS1 [Xylazine HCl] | 0.87 | 0.77 | 0.95 | 1.09 | 0.89 | 0.76
COC(=O)C1=CCCN(C)C1 [Arecoline HBr] | 1.21 | 1.06 | 1.02 | 1.05 | 0.94 | 0.96
C#CCN(C)[C@H](C)Cc1ccccc1 [Selegiline HCl] | 0.64 | 0.53 | 0.82 | 0.85 | 1.07 | 0.74
CCCCCCCCCCCCCCCC[n+]1ccccc1 [Cetylpyridinium Chloride] | 0.86 | 0.14 | 0.74 | 0.01 | 1 | 0.01
CCOC(=O)Nc1ccc(NCc2ccc(F)cc2)cc1N [Retigabine 2HCl] | 1.12 | 1.41 | 1.04 | 1.23 | 0.93 | 1.25
CCC1(c2cccc(O)c2)CCCCN(C)C1 (stereo not given) [Meptazinol HCl] | 0.88 | 0.84 | 0.89 | 1.08 | 1.01 | 1.1
CC(C)N(CCC(C(N)=O)(c1ccccc1)c1ccccn1)C(C)C (stereo not given) [Disopyramide Phosphate] | 1.21 | 1.27 | 1.12 | 0.88 | 1.07 | 0.91
O=c1[nH]c2ccccc2n1C1CCN(CCCC(c2ccc(F)cc2)c2ccc(F)cc2)CC1 [Pimozide] | 1.32 | 1.44 | 1.43 | 1.45 | 1.37 | 1.47
O=C(O[C@H]1C[N+]2(CCCOc3ccccc3)CCC1CC2)C(O)(c1cccs1)c1cccs1 [Aclidinium Bromide] | 0.9 | 0.86 | 0.61 | 0.81 | 0.67 | 0.94
C[C@@H]1[C@H](O)[C@@H](C)/C=C/C=C/CC/C=C/C=C/C=C/C=C/[C@H](O[C@H]2O[C@@H](C)[C@H](O)[C@@H](N)[C@H]2O)C[C@@H]2O[C@](O)(C[C@@H](O)[C@H](O)CC[C@@H](O)C[C@@H](O)C[C@@H](O)CC(=O)O[C@H]1C)C[C@H](O)[C@H]2C(=O)O [Nystatin (Fungicidin)] | 0.94 | 0.11 | 1.27 | 0.42 | 0.89 | 0.03

Whole records from above. Order of values: growth (C. auris AR-384; 1 µM)	growth (C. auris AR-384; 10 µM)	growth (C. auris AR-386; 1 µM)	growth (C. auris AR-386; 10 µM)	growth (C. auris AR-387; 1 µM)	growth (C. auris AR-387; 10 µM)
CCc1cc2c(s1)-n1c(C)nnc1CN=C2c1ccccc1Cl [Etizolam] in the list: 0.88	0.75	0.98	0.66	0.83	0.62
CC(C)N(CCNC(=O)CN1CCCC1=O)C(C)C [Pramiracetam] in the list: 0.95	0.86	1.26	1.15	1.38	1.23
